Measurements as given in PubChem BioAssay AID540276 (National Center for Advancing Translational Sciences (NCATS), 2011).
In all, about 300,000 compounds went through this assay and about 5,400 (1.8%) were called active. Inconclusive means that the source gave no clear call. Such entries were picked first, then a sample of the others. The call rests on the fitted dose curve; tested in HEK293 cells. Potencies beside an inconclusive call are fits to weak or partial responses and may not hold up.

Assay: qHTS for inhibitors of binding or entry into cells for Marburg Virus
Details: Marburg virus pseudotyped entry inhibition, cell reporter; activity change, negative = inhibition: at 37.8 µM (top of the series) unless noted
On the % scale 0 is the no-effect control and ±100 the full control effect; potency means the concentration at half of the fitted maximal effect.

| SMILES | Potency | activity change, negative = inhibition |
| --- | --- | --- |
| CN(C(=O)c1ccncc1)c1nnc(-c2ccccn2)s1 | inconclusive: 35.5 µM [activator, single point] |  |
| O=C(COc1ccccc1Cl)Nc1cccc(S(=O)(=O)NC2=NCCCCC2)c1 | inconclusive: 35.5 µM [inhibitor, partial curve, poor fit] |  |
| COc1ccc(C(C)(C)C)cc1NC(=O)CCCN1C(=O)NC(C)(C)C1=O | inconclusive: 35.5 µM [inhibitor, single point] |  |
| Cc1cc(=O)c2n(Cc3ccccc3Cl)nc[n+]2[nH]1 | inconclusive: 6.51 µM [inhibitor, single point] |  |
| N#Cc1cccnc1N1CCN(C(=O)c2ccco2)CC1 | inconclusive: 4.47 µM [activator, single point] |  |
| CSc1ncc(Cl)c(C(=O)C(C#N)c2nc3c(C)cc(C)cc3c(=O)[nH]2)n1 (centres undefined) | inconclusive: 23.1 µM [inhibitor, single point] |  |
| COc1cccc(NC(=O)CN(C)C(=O)c2ccc(Cl)c(S(=O)(=O)N3CCCCCC3)c2)c1 | inconclusive: 35.5 µM [inhibitor, single point] |  |
| CCOc1ccccc1NC1=C(Cl)C(=O)N(Cc2ccccc2)C1=O | inconclusive: 7.94 µM [inhibitor, partial curve, poor fit] |  |
| CCCSc1ncc(Cl)c(C(=O)Nc2ccc(S(=O)(=O)N3CC(C)OC(C)C3)cc2)n1 (centres undefined) | inconclusive: 23.1 µM [inhibitor, single point] |  |
| CC(C)Cc1nnc(NS(=O)(=O)c2ccc([N+](=O)[O-])cc2)s1 |  | inactive: 2.26% |
| CCCCCCCCCCCCCCCC[N+](C)(C)Cc1ccc(F)cc1 | inconclusive: 2.24 µM [activator, single point] |  |
| O=C(c1cc(COc2ccc(F)c(F)c2)on1)N1CCN(C/C=C/c2ccccc2)CC1 | inconclusive: 7.08 µM [inhibitor, partial curve, poor fit] |  |
| CC1CCN(c2ccc(C(=O)O)cc2)CC1 | inconclusive: 6.31 µM [inhibitor, single point] |  |
| Cc1cc(NC(=O)C2CCN(S(=O)(=O)c3cccs3)CC2)no1 | inconclusive: 2 µM [activator, partial curve, poor fit] |  |
| CCc1ccccc1NC(=O)C(CC)Sc1nc2cc3c(cc2c(=O)n1Cc1ccco1)OCO3 (centres undefined) | inconclusive: 5.8 µM [inhibitor, full curve, poor fit] |  |
| Cc1cc(C)nc(SCc2ccc([N+](=O)[O-])cc2)n1 | inconclusive: 35.5 µM [inhibitor, single point] |  |
| O=C(CCOc1ccccc1)OCC(=O)c1cc2ccccc2o1 | inconclusive: 7.08 µM [activator, partial curve, poor fit] |  |
| COC(=O)c1ccc(N/C(C)=C/C(=O)c2ccc(C)o2)cc1 |  | inactive: 20.4% |
| CCCCOc1ccccc1Cn1c(=O)sc2ccccc21 | inconclusive: 5.62 µM [inhibitor, single point] |  |
| CCOC(=O)c1cc(-c2ccccc2)sc1NC(=O)CN1C(=O)NC(CC)(c2ccc(F)cc2)C1=O (centres undefined) | inconclusive: 23.1 µM [inhibitor, single point] |  |
| Cc1ccc(C)c(/C(O)=C2\C(=O)C(=O)N(Cc3cccnc3)C2c2cccnc2)c1 (centres undefined) | inconclusive: 0.447 µM [inhibitor, single point] |  |
| CC(C)(C)c1ccc(OCC(=O)N(c2ccccn2)C2CCCCC2)cc1 | inconclusive: 35.5 µM [inhibitor, partial curve, poor fit] |  |

By substructure, the compounds so far containing a cyano group (two)

| SMILES | Potency | activity change, negative = inhibition |
| --- | --- | --- |
| N#Cc1cccnc1N1CCN(C(=O)c2ccco2)CC1 | inconclusive: 4.47 µM [activator, single point] |  |
| CSc1ncc(Cl)c(C(=O)C(C#N)c2nc3c(C)cc(C)cc3c(=O)[nH]2)n1 (centres undefined) | inconclusive: 23.1 µM [inhibitor, single point] |  |

Continued:

| SMILES | Potency | activity change, negative = inhibition |
| --- | --- | --- |
| CC1CC(=O)Nc2ccccc2N1S(=O)(=O)c1ccc(C(F)(F)F)cc1 (centres undefined) | inconclusive: 2.51 µM [activator, partial curve] |  |
| CS(=O)(=O)c1ccc2nc(NC(=O)c3cc4ccccc4o3)sc2c1 | inconclusive: 35.5 µM [inhibitor, single point] |  |
| Cc1ccc(C(=O)Nc2ncc(C)s2)s1 | active: 2.82 µM |  |
| O=C(C1CCCCC1)N1CCN(c2ccnc3cc(Cl)ccc23)CC1 | inconclusive: 10 µM [inhibitor, partial curve] |  |
| Nc1ncnc(Nc2ccccn2)c1[N+](=O)[O-] |  | inactive: -0.97% [at 46.1 µM] |
| Cn1c(=O)n(C)c2cc(N3CCOCC3)c(NC(=O)c3ccc(C(C)(C)C)cc3)cc21 |  | inactive: 2.76% [at 46.1 µM] |
| O=C(Nc1nc2ccccc2s1)c1ccc(OCC2CCCO2)cc1 (centres undefined) | inconclusive: 3.55 µM [inhibitor, single point] |  |
| Cc1cc2oc(=O)cc(CN3CCCCC3C)c2cc1C(C)C (centres undefined) |  | inactive: -25.6% [at 46.1 µM] |
| COCCNC(=O)c1cc2c(=O)n3cccc(C)c3nc2n(Cc2ccncc2)c1=N | inconclusive: 1.3 µM [inhibitor, partial curve, poor fit] |  |
| COc1ccc2cc3cc(C(=O)N4CCN(c5cccc(C(F)(F)F)c5)CC4)sc3nc2c1 |  | inactive: -1.65% [at 46.1 µM] |
| Nc1c(C(=O)NCc2ccco2)c2nc3ccccc3nc2n1CCc1ccccc1F | inconclusive: 20.6 µM [inhibitor, single point] |  |
| COc1ccc(-n2ccnc2CN2CCCC(CO)(Cc3cccc(OC)c3)C2)cc1 (centres undefined) | inconclusive: 35.5 µM [inhibitor, single point] |  |
| COc1ccc(CNCCC(c2ccccc2)C2CCOC(C)(C)C2)cc1 (centres undefined) | inconclusive: 3.55 µM [inhibitor, full curve] |  |
| Cc1ccc(C)c2[nH]c(=O)c(CN(CCCN(C)C)C(=O)NCc3ccccc3)cc12 | inconclusive: 25.1 µM [inhibitor, single point] |  |
| CCN(CC)c1ccc(NC(=O)c2cc(OC)cc(OC)c2)c(C)c1 | inconclusive: 35.5 µM [inhibitor, partial curve, poor fit] |  |
| O=C(NCCc1ccccc1)c1noc2c1CCc1ccccc1-2 |  | inactive: -12.9% |
| COc1ccccc1CNc1nc2ccccc2c2nc(-c3cccc(C)c3)nn12 | inconclusive: 7.08 µM [activator, partial curve, poor fit] |  |
| N#Cc1cccc(NC(=O)CNc2cccc(S(=O)(=O)N3CCCCC3)c2)c1 | inconclusive: 15.8 µM [inhibitor, single point] |  |
| Cc1ccc(NC(=O)CSc2nc3ccc(Nc4nc(N5CCOCC5)nc(N5CCOCC5)n4)cc3s2)cc1 | inconclusive: 6.31 µM [inhibitor, single point] |  |
| COc1cccc(NC(=O)c2cc(Cl)nnc2Cl)c1 | inconclusive: 35.5 µM [inhibitor, single point] |  |
| CC(=O)Nc1ccc(/C=C2/Sc3ccccc3C2=O)cc1 |  | inactive: -26.6% [at 46.1 µM] |
| C/C(=N\N=C(N)N)c1ccccc1 | inconclusive: 0.631 µM [inhibitor, full curve, poor fit] |  |

| SMILES | Potency | activity change, negative = inhibition |
| --- | --- | --- |
| COc1cc2c(cc1OC)/C(=C/C#N)NC(C)(C)C2 |  | inactive: 0.167% |
| CSc1ccc(CN2CCCC(CNC(=O)c3ccc(F)cc3)C2)cc1 (centres undefined) | inconclusive: 10 µM [inhibitor, partial curve, poor fit] |  |
| COc1ccc(C(=O)NC(=S)Nc2ccc(Cc3ccncc3)cc2)cc1 | inconclusive: 7.94 µM [inhibitor, partial curve, poor fit] |  |
| Cc1cccn2c(=O)c3cc(C#N)c(=O)n(-c4nnc(SCc5ccc(F)cc5)s4)c3nc12 |  | inactive: 8.85% [at 46.1 µM] |
| Cc1cc2nccc(-c3ccco3)n2n1 | inconclusive: 5.62 µM [activator, single point] |  |
| CC(C)CNC(=S)NC(=O)c1ccc([N+](=O)[O-])cc1 | inconclusive: 7.08 µM [activator, partial curve, poor fit] |  |
| O=C(CSc1cccc2cccnc12)OCC(=O)c1ccccc1 | inconclusive: 29.1 µM [inhibitor, single point] |  |
| CCn1c(CCNC(=O)c2cccs2)n[nH]c1=S | inconclusive: 0.891 µM [inhibitor, single point] |  |
| O=C(NCCCN1CCOCC1)c1ccc2c(=O)n(Cc3ccccc3)c(=S)[nH]c2c1 | inconclusive: 11.2 µM [inhibitor, partial curve, poor fit] |  |
| CCOC(=O)CSC1=Nc2ccccc2C2=NC(CC(=O)NCc3cccs3)C(=O)N12 (centres undefined) | inconclusive: 29.1 µM [activator, single point] |  |
| C=C(C)c1cccc(C(C)(C)NC(=O)N2CCN(c3ccccc3OC)CC2)c1 | inconclusive: 0.708 µM [inhibitor, full curve, poor fit] |  |
| O=C(CCCN1C(=O)/C(=C/c2ccccc2Cl)SC1=S)Nc1ccccn1 | inconclusive: 1.26 µM [inhibitor, full curve, poor fit] |  |
| CSc1ncc(Cl)c(C(=O)N(C)c2ccccc2)n1 | inconclusive: 3.16 µM [activator, single point] |  |
| CN1CCN(Cc2nc(N)nc(Nc3ccc4c(c3)OCCO4)n2)CC1 |  | inactive: 0% |
| CC1=NN(c2ccccc2)C(=O)C1/C=C1\NC(=S)NC1=O (centres undefined) |  | inactive: -28.6% [at 46.1 µM] |
| N=C1c2ccccc2CN1NC(=O)c1ccccc1 | inconclusive: 12.6 µM [inhibitor, single point] |  |
| CCOCCCNC(=O)c1cn(CC(C)C)c(=O)c2c1c1ccccc1n2C | inconclusive: 1 µM [inhibitor, full curve, poor fit] |  |
| O=C(/C=C/c1cnc2ccccc2n1)NC1CCCCCC1 | inconclusive: 0.0891 µM [inhibitor, full curve, poor fit] |  |
| COc1ccccc1Nc1nc(N)nc(N)c1S(=O)(=O)c1ccccc1 | inconclusive: 20 µM [inhibitor, partial curve, poor fit] |  |
| COc1cccc(N2CCN(C(=O)c3oc4ccccc4c3NC(=O)Cc3ccc(OC)c(OC)c3)CC2)c1 | inconclusive: 0.355 µM [inhibitor, full curve, poor fit] |  |
